Binding data for 1 molecule are collected here from PMC2596967.

Chains of the proteins cited; added tags and fusions are not shown.
UniProt Q62406: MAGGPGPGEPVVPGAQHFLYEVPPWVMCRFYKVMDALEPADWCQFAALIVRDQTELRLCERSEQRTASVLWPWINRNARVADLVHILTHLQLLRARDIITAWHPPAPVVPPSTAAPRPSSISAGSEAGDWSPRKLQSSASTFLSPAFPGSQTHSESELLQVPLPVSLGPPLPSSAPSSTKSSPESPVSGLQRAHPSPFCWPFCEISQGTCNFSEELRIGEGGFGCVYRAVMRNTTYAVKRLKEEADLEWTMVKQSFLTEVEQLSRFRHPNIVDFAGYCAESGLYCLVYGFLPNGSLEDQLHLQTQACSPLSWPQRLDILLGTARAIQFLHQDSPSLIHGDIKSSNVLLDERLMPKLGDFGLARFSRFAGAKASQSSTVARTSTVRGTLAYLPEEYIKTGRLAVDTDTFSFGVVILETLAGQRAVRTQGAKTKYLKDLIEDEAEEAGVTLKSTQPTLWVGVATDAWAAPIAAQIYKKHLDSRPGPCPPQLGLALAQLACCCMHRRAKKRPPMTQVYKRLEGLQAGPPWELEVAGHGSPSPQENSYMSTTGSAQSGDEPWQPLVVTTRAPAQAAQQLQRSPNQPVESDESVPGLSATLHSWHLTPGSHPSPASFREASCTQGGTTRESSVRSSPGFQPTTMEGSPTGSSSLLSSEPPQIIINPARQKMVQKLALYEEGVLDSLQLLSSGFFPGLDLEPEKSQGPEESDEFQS

The test deals with IL-1 receptor-associated kinase 1 (IRAK-1), endogenous in mouse macrophages (mouse (endogenous in bone marrow-derived MØ lines)) (UniProt Q62406). The experiment in a line: co-IP; endogenous proteins of mouse MØ lysates; IP with 4 µg IRAK-1 or SHP-1 antibody on protein A/G agarose beads, three washes with lysis buffer, western blot; cells naive, L. donovani-infected and/or stimulated with LPS (100 ng/ml).

No constants are given. Whether binding was seen depends on the method and setting. In cells and extracts the contact can be indirect. Some results given as binding are weak or reduced against the parent protein; the word gives no strength.

B1: TRAF6, endogenous in mouse macrophages (protein, UniProt P70196 1-530)
chain: MSLLNCENSCGSSQSSSDCCAAMAASCSAAVKDDSVSGSASTGNLSSSFMEEIQGYDVEFDPPLESKYECPICLMALREAVQTPCGHRFCKACIIKSIRDAGHKCPVDNEILLENQLFPDNFAKREILSLTVKCPNKGCLQKMELRHLEDHQVHCEFALVNCPQCQRPFQKCQVNTHIIEDCPRRQVSCVNCAVSMAYEEKEIHDQSCPLANIICEYCGTILIREQMPNHYDLDCPTAPIPCTFSVFGCHEKMQRNHLARHLQENTQLHMRLLAQAVHNVNLALRPCDAASPSRGCRPEDPNYEETIKQLESRLVRQDHQIRELTAKMETQSMYVGELKRTIRTLEDKVAEMEAQQCNGIYIWKIGNFGMHLKSQEEERPVVIHSPGFYTGRPGYKLCMRLHLQLPTAQRCANYISLFVHTMQGEYDSHLPWPFQGTIRLTILDQSEALIRQNHEEVMDAKPELLAFQRPTIPRNPKGFGYVTFMHLEALRQGTFIKDDTLLVRCEVSTRFDMGGLRKEGFQPRSTDAGV
As for B1, the binding result is reported as “binds”.
